The list shows a part of the results. The signal is at background level for most entries.
Assays:
Test in all cases: fluorescence intensity of antibody binding to polysaccharide-coupled beads; higher = stronger binding
[1] = biological target: pneumococcal polysaccharide Pn46
[2] = biological target: pneumococcal polysaccharide Pn47A
[3] = biological target: pneumococcal polysaccharide Pn47F
[4] = biological target: pneumococcal polysaccharide Pn48
[5] = biological target: pneumococcal polysaccharide Pn5
[6] = biological target: pneumococcal polysaccharide Pn6A
[7] = biological target: pneumococcal polysaccharide Pn6B
[8] = biological target: pneumococcal polysaccharide Pn6C
[9] = biological target: pneumococcal polysaccharide Pn6D
[10] = biological target: pneumococcal polysaccharide Pn7A
[11] = biological target: pneumococcal polysaccharide Pn7B
[12] = biological target: pneumococcal polysaccharide Pn7C
[13] = biological target: pneumococcal polysaccharide Pn7F
[14] = biological target: pneumococcal polysaccharide Pn8
[15] = biological target: pneumococcal polysaccharide Pn9A
[16] = biological target: pneumococcal polysaccharide Pn9L
[17] = biological target: pneumococcal polysaccharide Pn9N
[18] = biological target: pneumococcal polysaccharide Pn9V
[19] = biological target: pneumococcal polysaccharide C-Poly-1
[20] = biological target: pneumococcal polysaccharide C-Poly-2
[21] = biological target: pneumococcal polysaccharide Pn1
[22] = biological target: pneumococcal polysaccharide Pn10A
[23] = antibody concentration 0.534724 ng/mL
[24] = antibody concentration 2.8593 ng/mL
[25] = antibody concentration 15.2894 ng/mL
[26] = antibody concentration 81.7561 ng/mL
[27] = antibody concentration 437.17 ng/mL
[28] = antibody concentration 2337.65 ng/mL
[29] = antibody concentration 0.1 ng/mL
[30] = antibody concentration 12500 ng/mL

B1: 3S41.1 (protein)
chain 1: EVQLVESGGGLVQPGGSLRLSCATSGFTFRNYWMYWFRQAPGKGLDWVSSISDSSSNTFYSDSVKGRFTISRDNAKNTLYLQMNSLRAEDTAVYYCARRPIAAATGVYWYFDLWGPGTPITVSS
chain 2: EIVMTQSPATLSLSPGERATLSCRASQNIGSNLAWYQQKPGRAPKLLIYDASSRATGIPDRFSASGSGTDFTLTISSLEPEDVGVYYCQQYNNWKIFGPGTKLEIK
[1]; [23]
  fluorescence intensity: 23 MFI
[1]; [24]
  fluorescence intensity: 23.5 MFI
[1]; [25]
  fluorescence intensity: 24.8 MFI
[1]; [26]
  fluorescence intensity: 23.5 MFI
[1]; [27]
  fluorescence intensity: 24.5 MFI
[1]; [28]
  fluorescence intensity: 27.5 MFI
[2]; [29]
  fluorescence intensity: 15.5 MFI
[2]; [23]
  fluorescence intensity: 17 MFI
[2]; [24]
  fluorescence intensity: 15.5 MFI
[2]; [25]
  fluorescence intensity: 17 MFI
[2]; [26]
  fluorescence intensity: 16.5 MFI
[2]; [27]
  fluorescence intensity: 16.5 MFI
[2]; [28]
  fluorescence intensity: 17.2 MFI
[3]; [29]
  fluorescence intensity: 12 MFI
[3]; [23]
  fluorescence intensity: 12.5 MFI
[3]; [24]
  fluorescence intensity: 13 MFI
[3]; [25]
  fluorescence intensity: 12 MFI
[3]; [26]
  fluorescence intensity: 10.5 MFI
[3]; [27]
  fluorescence intensity: 13 MFI
[3]; [28]
  fluorescence intensity: 15.5 MFI
[4]; [29]
  fluorescence intensity: 23.5 MFI
[4]; [23]
  fluorescence intensity: 22.8 MFI
[4]; [24]
  fluorescence intensity: 23.2 MFI
[4]; [25]
  fluorescence intensity: 20.2 MFI
[4]; [26]
  fluorescence intensity: 22.5 MFI
[4]; [27]
  fluorescence intensity: 23 MFI
[4]; [28]
  fluorescence intensity: 27.5 MFI
[5]; [29]
  fluorescence intensity: 8.5 MFI
[5]; [23]
  fluorescence intensity: 8.5 MFI
[5]; [24]
  fluorescence intensity: 9.5 MFI
[5]; [25]
  fluorescence intensity: 8.75 MFI
[5]; [26]
  fluorescence intensity: 8.5 MFI
[5]; [27]
  fluorescence intensity: 10.5 MFI
[5]; [28]
  fluorescence intensity: 13.5 MFI
[6]; [29]
  fluorescence intensity: 22.8 MFI
[6]; [23]
  fluorescence intensity: 23.8 MFI
[6]; [24]
  fluorescence intensity: 20.5 MFI
[6]; [25]
  fluorescence intensity: 21.5 MFI
[6]; [26]
  fluorescence intensity: 25.5 MFI
[6]; [27]
  fluorescence intensity: 22.5 MFI
[6]; [28]
  fluorescence intensity: 27.5 MFI
[7]; [29]
  fluorescence intensity: 18.5 MFI
[7]; [23]
  fluorescence intensity: 20 MFI
[7]; [24]
  fluorescence intensity: 19.2 MFI
[7]; [25]
  fluorescence intensity: 19.5 MFI
[7]; [26]
  fluorescence intensity: 20 MFI
[7]; [27]
  fluorescence intensity: 20.5 MFI
[7]; [28]
  fluorescence intensity: 22.2 MFI
[8]; [29]
  fluorescence intensity: 18 MFI
[8]; [23]
  fluorescence intensity: 15 MFI
[8]; [24]
  fluorescence intensity: 17 MFI
[8]; [25]
  fluorescence intensity: 21 MFI
[8]; [26]
  fluorescence intensity: 17 MFI
[8]; [27]
  fluorescence intensity: 16.5 MFI
[8]; [28]
  fluorescence intensity: 18.2 MFI
[9]; [29]
  fluorescence intensity: 17 MFI
[9]; [23]
  fluorescence intensity: 16 MFI
[9]; [24]
  fluorescence intensity: 18 MFI
[9]; [25]
  fluorescence intensity: 18.5 MFI
[9]; [26]
  fluorescence intensity: 16 MFI
[9]; [27]
  fluorescence intensity: 17 MFI
[9]; [28]
  fluorescence intensity: 19 MFI
[10]; [29]
  fluorescence intensity: 20 MFI
[10]; [23]
  fluorescence intensity: 21 MFI
[10]; [24]
  fluorescence intensity: 20 MFI
[10]; [25]
  fluorescence intensity: 21.2 MFI
[10]; [26]
  fluorescence intensity: 20 MFI
[10]; [27]
  fluorescence intensity: 20.2 MFI
[10]; [28]
  fluorescence intensity: 33 MFI
[11]; [29]
  fluorescence intensity: 16.5 MFI
[11]; [23]
  fluorescence intensity: 16.5 MFI
[11]; [24]
  fluorescence intensity: 17 MFI
[11]; [25]
  fluorescence intensity: 16 MFI
[11]; [26]
  fluorescence intensity: 15.5 MFI
[11]; [27]
  fluorescence intensity: 16.5 MFI
[11]; [28]
  fluorescence intensity: 19.5 MFI
[12]; [29]
  fluorescence intensity: 17.5 MFI
[12]; [23]
  fluorescence intensity: 17 MFI
[12]; [24]
  fluorescence intensity: 15 MFI
[12]; [25]
  fluorescence intensity: 14.5 MFI
[12]; [26]
  fluorescence intensity: 16.5 MFI
[12]; [27]
  fluorescence intensity: 16 MFI
[12]; [28]
  fluorescence intensity: 18 MFI
[13]; [29]
  fluorescence intensity: 14 MFI
[13]; [23]
  fluorescence intensity: 15.5 MFI
[13]; [24]
  fluorescence intensity: 15.5 MFI
[13]; [25]
  fluorescence intensity: 15.5 MFI
[13]; [26]
  fluorescence intensity: 15 MFI
[13]; [27]
  fluorescence intensity: 17 MFI
[13]; [28]
  fluorescence intensity: 26 MFI
[14]; [29]
  fluorescence intensity: 23.5 MFI
[14]; [23]
  fluorescence intensity: 21.2 MFI
[14]; [24]
  fluorescence intensity: 21 MFI
[14]; [25]
  fluorescence intensity: 22.5 MFI
[14]; [26]
  fluorescence intensity: 21.5 MFI
[14]; [27]
  fluorescence intensity: 23.5 MFI
[14]; [28]
  fluorescence intensity: 27.5 MFI
[15]; [29]
  fluorescence intensity: 19 MFI
[15]; [23]
  fluorescence intensity: 18.2 MFI
[15]; [24]
  fluorescence intensity: 18.5 MFI
[15]; [25]
  fluorescence intensity: 20.5 MFI
[15]; [26]
  fluorescence intensity: 20 MFI
[15]; [27]
  fluorescence intensity: 19.5 MFI
[15]; [28]
  fluorescence intensity: 21.5 MFI
[16]; [29]
  fluorescence intensity: 16 MFI
[16]; [23]
  fluorescence intensity: 17.5 MFI
[16]; [24]
  fluorescence intensity: 16.5 MFI
[16]; [25]
  fluorescence intensity: 17 MFI
[16]; [26]
  fluorescence intensity: 18.2 MFI
[16]; [27]
  fluorescence intensity: 18.2 MFI
[16]; [28]
  fluorescence intensity: 19.8 MFI
[17]; [29]
  fluorescence intensity: 16 MFI
[17]; [23]
  fluorescence intensity: 17 MFI
[17]; [24]
  fluorescence intensity: 15 MFI
[17]; [25]
  fluorescence intensity: 15 MFI
[17]; [26]
  fluorescence intensity: 16.5 MFI
[17]; [27]
  fluorescence intensity: 17 MFI
[17]; [28]
  fluorescence intensity: 18.8 MFI
[18]; [29]
  fluorescence intensity: 15.8 MFI
[18]; [23]
  fluorescence intensity: 15 MFI
[18]; [24]
  fluorescence intensity: 15 MFI
[18]; [25]
  fluorescence intensity: 15.5 MFI
[18]; [26]
  fluorescence intensity: 15.5 MFI
[18]; [27]
  fluorescence intensity: 15.5 MFI
[18]; [28]
  fluorescence intensity: 18.5 MFI

B2: 4-99.1 (protein)
chain 1: QVQLQESGPGLVKPSETLSLTCAVSGDSISSGYFWGWIRQPPGKGLEYIGYISGESGNTYDNPSLKSRVTISKDTSKNQFSLNLRSVTAADTAVYYCARRTVYIGFDYWGQGVLVTVSS
chain 2: QAAPTQPPSVSGSPGQSVTISCTGTSSDIGYYNAVSWYQQHPGKAPKLMIYEVSKRPSGVSDRFSGSKSGTTASLTISGLQAEDEADYYCSSYAGTNTYIFGAGTRLTVL
[19]; [29]
  fluorescence intensity: 27.5 MFI
[19]; [23]
  fluorescence intensity: 26.5 MFI
[19]; [24]
  fluorescence intensity: 26.2 MFI
[19]; [25]
  fluorescence intensity: 27.5 MFI
[19]; [26]
  fluorescence intensity: 26.5 MFI
[19]; [27]
  fluorescence intensity: 29.5 MFI
[19]; [28]
  fluorescence intensity: 60 MFI
[19]; [30]
  fluorescence intensity: 553 MFI
[20]; [29]
  fluorescence intensity: 23.5 MFI
[20]; [23]
  fluorescence intensity: 21 MFI
[20]; [24]
  fluorescence intensity: 22 MFI
[20]; [25]
  fluorescence intensity: 21.5 MFI
[20]; [26]
  fluorescence intensity: 23 MFI
[20]; [27]
  fluorescence intensity: 24 MFI
[20]; [28]
  fluorescence intensity: 55.5 MFI
[20]; [30]
  fluorescence intensity: 462 MFI
[21]; [29]
  fluorescence intensity: 12.8 MFI
[21]; [23]
  fluorescence intensity: 15.8 MFI
[21]; [24]
  fluorescence intensity: 13.5 MFI
[21]; [25]
  fluorescence intensity: 14 MFI
[21]; [26]
  fluorescence intensity: 14 MFI
[21]; [27]
  fluorescence intensity: 17.5 MFI
[21]; [28]
  fluorescence intensity: 19 MFI
[21]; [30]
  fluorescence intensity: 70.5 MFI
[22]; [29]
  fluorescence intensity: 25.5 MFI
[22]; [23]
  fluorescence intensity: 27 MFI
[22]; [24]
  fluorescence intensity: 27.2 MFI
[22]; [25]
  fluorescence intensity: 26.5 MFI
[22]; [26]
  fluorescence intensity: 26 MFI
[22]; [27]
  fluorescence intensity: 26.5 MFI

Reference: the supplement of paper PMC11438910
